Measurements reported in PubChem BioAssay AID504774 (Drosophila RNAi Screening Center, 2011)

Test: 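Genes required for cells to withstand methyl methanesulphonate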 (primary screen)
Cells: Drosophila Kc167 cells
Knock-down reagent: long dsRNA against Drosophila genes, about 0.25 µg dsRNA per well
Timing: about 6 days: 3 days knock-down, then 3 days with or without MMS
Challenge: methyl methanesulphonate 0.004% (w/v) for 3 days after knock-down
Detection: 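ATP-dependent luminescence as a measure of live cells in MMS-exposed wells, quantile normalised within each plate, with replicate values also given as a mean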
Reading the numbers: mean viability with MMS and viability with MMS: higher = more surviving cells after MMS
The screen tested about 23,000 reagents; below is a random part of those with a known target gene and a result. 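Values are quantile-normalised luminescence on an arbitrary scale; higher means more cells surviving MMS.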

| target gene | amplicon | mean viability with MMS | viability with MMS, replicate 1 | viability with MMS, replicate 2 |
| --- | --- | --- | --- | --- |
| Vps24 | DRSC12332 | 3.58e6 | 4.06e6 | 4.06e6 |
| E2f2 | DRSC03320 | 3.63e6 | 4.19e6 | 3.95e6 |
| Klp10A | DRSC19601 | 3.62e6 | 3.80e6 | 4.07e6 |
| CG41099 | DRSC21049 | 3.63e6 | 4.18e6 | 3.99e6 |
| CG41099 | DRSC21051 | 3.60e6 | 4.09e6 | 4.05e6 |
| CG32642 | DRSC18959 | 3.51e6 | 4.06e6 | 3.91e6 |
| DMAP1 | DRSC06044 | 3.03e6 | 3.62e6 | 3.63e6 |
| Eip63F-1 | DRSC08072 | 3.71e6 | 4.26e6 | 4.09e6 |
| Eip63F-1 | DRSC08659 | 3.59e6 | 3.94e6 | 4.19e6 |
| CG33679 | DRSC01436 | 3.55e6 | 4.07e6 | 3.97e6 |
| egl | DRSC04682 | 3.62e6 | 4.17e6 | 4.04e6 |
| CG9555 | DRSC03264 | 3.81e6 | 3.97e6 | 4.70e6 |
| sei | DRSC04713 | 3.55e6 | 4.06e6 | 3.92e6 |
| Nup93-2 | DRSC16221 | 3.53e6 | 4.07e6 | 3.93e6 |
| CR31822 | DRSC01510 | 3.65e6 | 4.18e6 | 4.04e6 |
| CG17111 | DRSC15174 | 3.58e6 | 3.98e6 | 4.14e6 |
| Tango2 | DRSC19394 | 3.53e6 | 4.15e6 | 3.74e6 |
| Tango2 | DRSC21526 | 3.44e6 | 3.98e6 | 3.88e6 |

Targets above whose target name starts with T or t (2):
| target gene | amplicon | mean viability with MMS | viability with MMS, replicate 1 | viability with MMS, replicate 2 |
| --- | --- | --- | --- | --- |
| Tango2 | DRSC19394 | 3.53e6 | 4.15e6 | 3.74e6 |
| Tango2 | DRSC21526 | 3.44e6 | 3.98e6 | 3.88e6 |
